This note sets out measurements from patent publication US20180105596A1 (ELSALYS BIOTECH, published 2018).

No constants are given. Whether binding was seen depends on the method and setting. Some binding calls cover weakened binding; strength is not graded here. For part of these data: Sequences can lack the tags named with a protein.

Assay [1] has as its target T1, Tyro3 ECD Ig1-Ig2-FNIII 1 (human) (UniProt Q06418).
T1 sequence (fragment): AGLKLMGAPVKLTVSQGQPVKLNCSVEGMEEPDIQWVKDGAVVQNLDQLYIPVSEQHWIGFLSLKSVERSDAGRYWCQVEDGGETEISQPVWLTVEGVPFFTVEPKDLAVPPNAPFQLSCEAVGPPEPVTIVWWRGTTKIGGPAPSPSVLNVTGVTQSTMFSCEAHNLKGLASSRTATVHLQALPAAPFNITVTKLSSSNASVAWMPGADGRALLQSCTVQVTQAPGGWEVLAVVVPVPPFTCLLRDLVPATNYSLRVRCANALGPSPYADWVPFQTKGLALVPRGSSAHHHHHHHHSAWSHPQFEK
Kind of assay: sandwich ELISA, Strep-tagged fragment captured on StrepMAB plate, scFv 10 µg/mL (Table 17), anti-FLAG-HRP. For orientation: An ELISA detects its analyte on a solid surface through an enzyme-linked reagent.

Assay [2] concerns the target T2, human recombinant full-length Tyro3 protein (OriGene TP308260) (human) (UniProt Q06418).
T2 sequence: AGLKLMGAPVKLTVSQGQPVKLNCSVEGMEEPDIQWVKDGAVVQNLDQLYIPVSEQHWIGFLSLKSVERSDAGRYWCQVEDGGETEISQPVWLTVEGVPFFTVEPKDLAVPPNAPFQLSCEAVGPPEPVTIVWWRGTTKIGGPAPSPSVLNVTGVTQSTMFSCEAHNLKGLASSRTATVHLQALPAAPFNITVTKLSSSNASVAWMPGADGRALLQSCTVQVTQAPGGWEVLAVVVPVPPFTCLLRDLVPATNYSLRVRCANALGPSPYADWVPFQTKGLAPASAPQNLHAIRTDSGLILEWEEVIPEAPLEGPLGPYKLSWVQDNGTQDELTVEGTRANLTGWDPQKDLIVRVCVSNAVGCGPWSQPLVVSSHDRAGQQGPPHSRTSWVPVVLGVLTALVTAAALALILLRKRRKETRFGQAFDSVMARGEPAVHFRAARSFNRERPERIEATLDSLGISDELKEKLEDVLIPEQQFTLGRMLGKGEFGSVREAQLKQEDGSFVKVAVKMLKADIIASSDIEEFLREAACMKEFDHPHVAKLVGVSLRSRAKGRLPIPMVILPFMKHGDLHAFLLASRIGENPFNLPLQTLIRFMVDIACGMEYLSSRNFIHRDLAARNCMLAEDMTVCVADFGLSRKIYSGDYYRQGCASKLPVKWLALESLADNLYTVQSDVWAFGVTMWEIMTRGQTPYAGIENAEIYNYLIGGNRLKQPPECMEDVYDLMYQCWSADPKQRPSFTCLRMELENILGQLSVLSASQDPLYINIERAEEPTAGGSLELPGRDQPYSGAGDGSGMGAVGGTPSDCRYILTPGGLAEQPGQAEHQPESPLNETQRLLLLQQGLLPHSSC
Kind of assay: ELISA, full-length Tyro3 coated 2.5 µg/mL, scFv 10 µg/mL, anti-His-HRP.

Assay [3] has as its target T3, immunoglobulin-like domain Ig-2 of human Tyro3 (human) (UniProt Q06418).
T3 sequence: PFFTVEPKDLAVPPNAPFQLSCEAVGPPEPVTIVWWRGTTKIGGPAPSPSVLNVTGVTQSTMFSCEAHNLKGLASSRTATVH
The assay can be described thus: double sandwich ELISA on captured fragments of hTyro3 ECD.

Assay [4] addresses T4, cynomolgus Tyro3 ECD, His-Strep tagged.
T4 construct: also called cyno TYRO3 ECD 8hisstrep
T4 extracellular domain: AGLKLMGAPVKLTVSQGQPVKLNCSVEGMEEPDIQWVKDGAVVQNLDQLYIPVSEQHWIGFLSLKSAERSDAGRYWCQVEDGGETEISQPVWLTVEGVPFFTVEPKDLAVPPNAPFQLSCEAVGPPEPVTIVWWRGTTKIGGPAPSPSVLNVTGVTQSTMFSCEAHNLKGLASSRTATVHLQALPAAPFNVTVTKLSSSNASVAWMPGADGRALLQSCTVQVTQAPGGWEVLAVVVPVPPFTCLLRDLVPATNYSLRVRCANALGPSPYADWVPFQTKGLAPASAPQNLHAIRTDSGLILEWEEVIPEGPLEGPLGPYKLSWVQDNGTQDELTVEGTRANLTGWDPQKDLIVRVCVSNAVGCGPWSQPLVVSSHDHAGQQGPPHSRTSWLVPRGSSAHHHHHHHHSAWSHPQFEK
The assay can be described thus: sandwich ELISA, Strep-tagged cynomolgus Tyro3 ECD captured on StrepMAB plate, IgG 3-fold from 3 µg/mL, anti-human IgG1-HRP. On the procedure:
A double sandwich ELISA was developed. This assay consisted in measuring the binding of the anti-Tyro3 antibodies to be tested on immobilized strep-tagged entire human Tyro3 ECD captured directly on ELISA plate pre-coated with an anti-strep mAb (StrepMAB-Immo coated microplates from IBA biotech). Briefly, the 96 wells of StrepMAB-Immo coated microplate were washed three times with 300 μL of the PBS Tween 0.2% (referred as ELISA washing solution). The capture of an excess of purified strep tagged hTyro3 ECD protein was achieved by a one hour incubation at room temperature. In these experiments, 3 μg of purified protein diluted in PBS, BSA 1% (referred as ELISA diluent solution) were immobilized per well. The wells were washed three times with 300 μL of the washing solution. The non-specific binding sites on the well surface were blocked during 60 min at room temperature with 200 μL/well of blocking solution (PBS, BSA 3%). The wells were washed five times with 300 μL of the washing solution. Then, 100 μl (in duplicates) of the different concentrations of anti-Tyro3 antibodies to be tested diluted in ELISA diluent solution, were added per well and allowed to incubate during 1 hour at room temperature. An Irrelevant control IgG2656 was also added in this experiment. For anti-Tyro3 antibodies in the ScFv format, experiments were performed with 6 concentrations in duplicates (FIG. 3A). […]

B1: anti-Tyro3 scFv 2414 (scFv, V domains shown)
VH: EVQLVQSGADVKKPGASLTISCQASGYTFTDYWISWVRQKPGKGLEWMGQINRHASNTMYGPSFQGHVTISADRSTATAYLQWRSLEASDTAMYYCVRSGGATSGGTIPEYYQHWGPGTLVTVSS
VL: SYELTQPPSVSVSPGQTARITCSGDALPKKYAYWYQQKSGQAPVLVIYEDWKRASGIPERFSGSSSGTMATLTISGAQVEDEADYYCYSQERKGNYFVFGGGTKLTVL
notes: Tested as a single-chain Fv made in E. coli
Turning to B1, the binding result in assay [1] and in assay [2] was “binds” throughout.

B2: anti-Tyro3 scFv 2713 (scFv, V domains shown)
VH: EVQLVQSGADVKKPGASLTISCQASGYTFTDYWISWVRQKPGKGLEWMGRISRHGSQTYYGPSFQGHVTISADRSTATAYLQWRSLEASDTAMYYCVRAGGQTSGGTIPEYYQHWGPGTLVTVSS
VL: SYELTQPPSVSVSPGQTARITCSGDALPKKYAYWYQQKSGQAPVLVIYEDHKRASGIPERFSGSSSGTMATLTISGAQVEDEADYYCYSISPAGNYGVFGGGTKLTVL
notes: as for B1
As for B2, the binding entry in assay [1], in assay [3] and in assay [2] was “binds” throughout.

B3: anti-Tyro3 scFv 2412 (scFv, V domains shown)
VH: EVQLVQSGADVKKPGASLTISCQASGYTFTDYWISWVRQKPGKGLEWMGRIRPLLSHTMYGPSFQGHVTISADRSTATAYLQWRSLEASDTAMYYCVRSWLATSGGTIPEYYQHWGPGTLVTVSS
VL: SYELTQPPSVSVSPGQTARITCSGDALPKKYAYWYQQKSGQAPVLVIYEDAKRVSGIPERFSGSSSGTMATLTISGAQVEDEADYYCYSASANGNYRVFGGGTKLTVL
notes: as for B1
B3: the binding entry in assay [1], in assay [3] and in assay [2] was “binds” throughout.

B4: anti-Tyro3 scFv 2413 (scFv, V domains shown)
VH: EVQLVQSGADVKKPGASLTISCQASGYTFTDYWISWVRQKPGKGLEWMGRIHTYQSSTRYGPSFQGHVTISADRSTATAYLQWRSLEASDTAMYYCVRHHSTTTANPYSSWGPGTLVTVSS
VL: SYELTQPPSVSVSPGQTARITCSGDALPKKYAYWYQQKSGQAPVLVIYEDDKRLSGIPERFSGSSSGTMATLTISGAQVEDEADYYCYSTEINGNYAVFGGGTKLTVL
notes: as for B1
As to B4, the binding entry in assay [1], in assay [3] and in assay [2] was “binds” throughout.

B5: anti-Tyro3 scFv 2415 (scFv, V domains shown)
VH: EVQLVQSGADVKKPGASLTISCQASGYTFTDYWISWVRQKPGKGLEWMGQIRGPASATHYGPSFQGHVTISADRSTATAYLQWRSLEASDTAMYYCVRHQQQTSGGTIPEYYQHWGPGTLVTVSS
VL: SYELTQPPSVSVSPGQTARITCSGDALPKKYAYWYQQKSGQAPVLVIYEDKKRISGIPERFSGSSSGTMATLTISGAQVEDEADYYCYSTSTGGNYMVFGGGTKLTVL
notes: as for B1
Turning to B5, the binding result in assay [1], in assay [3] and in assay [2] was “binds” throughout.

B6: anti-Tyro3 scFv 2709 (scFv, V domains shown)
VH: EVQLVQSGADVKKPGASLTISCQASGYTFTDYWISWVRQKPGKGLEWMGAISRNGSTTYYGPSFQGHVTISADRSTATAYLQWRSLEASDTAMYYCVRSGGLTSGGTIPEYYQHWGPGTLVPVSS
VL: SYELTQPPSVSVSPGQTARITCSGDALPKKYAYWYQQKSGQAPVLVIYEDKKRVSGIPERFSGSSSGTMATLTISGAQVEDEADYYCYSLAVDGNYGVFGGGTKLTVL
notes: as for B1
As for B6, the binding result in assay [1] and in assay [2] was “binds” in each case.

B7: anti-Tyro3 scFv 2717 (scFv, V domains shown)
VH: EVQLVQSGADVKKPGASLTISCQASGYTFTDYWISWVRQKPGKGLEWMGEIFLPPSTTVYGPSFQGHVTISADRSTATAYLQWRSLEASDTAMYYCVRQTRLTSGGTIPEYYQHWGPGTLVTVSS
VL: SYELTQPPSVSVSPGQTARITCSGDALPKKYAYWYQQKSGQAPVLVIYEDNKRGSGIPERFSGSSSGTMATLTISGAQVEDEADYYCYSKSPEGNYMVFGGGTKLTVL
notes: as for B1
On to B7, for which the binding result in assay [1] and in assay [2] was “binds” each time.

B8: anti-Tyro3 scFv 2711 (scFv, V domains shown)
VH: EVQLVQSGADVKKPGASLTISCQASGYTFTDYWISWVRQKPGKGLEWMGQIRGQHSSTLYGPSFQGHVTISADRSTATAYLQWRSLEASDTAMYYCVRHGASTSGGTIPEYYQHWGPGTLVTVSS
VL: SYELTQPPSVSVSPGQTARITCSGDALPKKYAYWYQQKSGQAPVLVIYEDAKRSSGIPERFSGSSSGTMATLTISGAQVEDEADYYCYSLSDSGNYFVFGGGTKLTVL
notes: as for B1
In the case of B8, the binding entry in assay [1], in assay [3] and in assay [2] was “binds” in each case.

B9: IgG2411 (antibody, V domains shown)
VH: EVQLVQSGADVKKPGASLTISCQASGYTFTDYWISWVRQKPGKGLEWMGSITRSSSRTHYGPSFQGHVTISADRSTATAYLQWRSLEASDTAMYYCVRGYTHLRTWGPGTLVTVSS
VL: SYELTQPPSVSVSPGQTARITCSGDALPKKYAYWYQQKSGQAPVLVIYEDSKRSSGIPERFSGSSSGTMATLTISGAQVEDEADYYCYSANQRGNYMVFGGGTKLTVL
notes: also called IGX2411
Regarding B9, the binding entry in assay [4] is given as “binds”.

B10: anti-Tyro3 scFv 2411 (scFv, V domains shown)
VH: EVQLVQSGADVKKPGASLTISCQASGYTFTDYWISWVRQKPGKGLEWMGSITRSSSRTHYGPSFQGHVTISADRSTATAYLQWRSLEASDTAMYYCVRGYTHLRTWGPGTLVTVSS
VL: SYELTQPPSVSVSPGQTARITCSGDALPKKYAYWYQQKSGQAPVLVIYEDSKRSSGIPERFSGSSSGTMATLTISGAQVEDEADYYCYSANQRGNYMVFGGGTKLTVL
notes: as for B1
In the case of B10, the binding entry in assay [1], in assay [3] and in assay [2] was “binds” each time.

B11: anti-Tyro3 scFv 2410 (scFv, V domains shown)
VH: EVQLVQSGADVKKPGASLTISCQASGYTFTDYWISWVRQKPGKGLEWMGQIVPRASRTNYGPSFQGHVTISADRSTATAYLQWRSLEASDTAMYYCVRPYFQTSGGTIPEYYQHWGPGTLVTVSS
VL: SYELTQPPSVSVSPGQTARITCSGDALPKKYAYWYQQKSGQAPVLVIYEDEKRASGIPERFSGSSSGTMATLTISGAQVEDEADYYCYSQERNGNYAVFGGGTKLTVL
notes: as for B1
As to B11, the binding entry in assay [1] and in assay [2] was “binds” throughout.
